According to PubChem BioAssay AID330 (DTP/NCI, 2004):
The list shows only some results of the screen, not a fair sample: it gathers tests that were run many times, whatever their T/C, doses with no T/C, and many T/C values between a quarter and a half above the control. Other doses and runs of a compound stand elsewhere. T/C gives the treated animals as a percentage of the vehicle group. Some entries give survivors of the animals treated and no T/C: the source holds a T/C of zero for them, seemingly a mark for toxic or unscored doses. Some survivor counts are full or nearly so, which does not show that the dose was tolerated: survival well below the control is almost never listed, so the zero probably covers shortened survival too. Counts of survivors are from the toxicity check (mostly the fifth day) where no day follows; animals may have died later. Schedules are NCI's codes, read here as Q, the interval in days (D) or hours (H), X, the number of doses. Some doses were run more than once; their values stand side by side, smallest first. Where survival is the endpoint, this PubChem deposit counts one and a half times the control or more as active, and values a quarter to a half above the control carry no call in these data; other NCI protocols may use other cut-offs. Additions like (4×) give the number of equal values in this list. Some T/C values carry the count of animals alive at the toxicity check (mostly the fifth day); where none is given, no animal had died by that day.

Test system: P388 leukemia ip, CD2F1 mice, survival T/C
Test: NCI In Vivo Anticancer Drug Screen. Data for tumor model P388 Leukemia (intraperitoneal) in CD2F1 (CDF1) mice
Details: T/C endpoint: median survival time, higher T/C = longer survival
[1] = dose: 400.0 mg/kg/injection, schedule: Q04DX002 (ip), vehicle: saline with Tween-80
[2] = dose: 100.0 mg/kg/injection, schedule: Q01DX005 (ip), vehicle: saline
[3] = dose: 200.0 mg/kg/injection, schedule: Q01DX005 (ip), vehicle: saline
[4] = dose: 1.0 mg/kg/injection, schedule: Q01DX009 (ip), vehicle: other
[5] = dose: 2.0 mg/kg/injection, schedule: Q01DX009 (ip), vehicle: other
[6] = dose: 2.0 mg/kg/injection, schedule: Q01DX009 (ip), vehicle: water

CCC1(O)CC2CN(CCc3c([nH]c4ccccc34)C(C(=O)OC)(c3cc4c(cc3OC)N(C)C3C(O)(C(=O)NCCO)C(O)C5(CC)C=CCN6CCC43C65)C2)C1 (stereo unspecified)
T/C (dose: 0.05 mg/kg/injection, schedule: Q01DX009 (ip), vehicle: saline): 136 % of control | T/C (dose: 0.1 mg/kg/injection, schedule: Q01DX009 (ip), vehicle: saline): 133 % of control | survivor count (dose: 1.6 mg/kg/injection, schedule: Q01DX009 (ip), vehicle: saline): 3 of 6 | survivor count (dose: 3.2 mg/kg/injection, schedule: Q01DX009 (ip), vehicle: saline): 1 of 6 | survivor count (dose: 5.0 mg/kg/injection, schedule: Q04DX003 (ip), vehicle: saline): 4 of 8 | survivor count (dose: 6.4 mg/kg/injection, schedule: Q01DX009 (ip), vehicle: saline): 0 of 6 | survivor count (dose: 12.8 mg/kg/injection, schedule: Q01DX009 (ip), vehicle: saline): 0 of 6

CCCCC/C(=C\c1ccccc1)C1OCC(COCC)O1 (stereo unspecified)
survivor count (dose: 400.0 mg/kg/injection, schedule: Q01DX009 (ip), vehicle: saline + Tween-80 + alcohol): 3 of 6

CCCCCCCCCCCCCCCCOc1ccc2c(c1OCCCCCCCCCCCCCCCC)OC(C)(C)C=C2C
survivor count [1]: 6 of 6

C[n+]1ccc(NC(=O)c2ccc(NC(=O)c3cccc(C(=O)Nc4ccc(C(=O)Nc5cc[n+](C)cc5)cc4)c3)cc2)cc1
T/C (dose: 25.0 mg/kg/injection, schedule: Q04DX003 (ip), vehicle: saline with Tween-80): 129 and 136 % of control | survivor count (dose: 100.0 mg/kg/injection, schedule: Q01DX009 (ip), vehicle: saline with Tween-80): 6 of 6 | survivor count (dose: 150.0 mg/kg/injection, schedule: Q04DX003 (ip), vehicle: saline with Tween-80): 3 of 6 | survivor count (dose: 200.0 mg/kg/injection, schedule: Q04DX003 (ip), vehicle: saline with Tween-80): 5 of 6 | survivor count (dose: 400.0 mg/kg/injection, schedule: Q04DX003 (ip), vehicle: saline with Tween-80): 0 of 6

CNC(=O)OCc1c(-c2ccccc2)c(-c2ccccc2)n(-c2ccccc2)c1COC(=O)NC
T/C (dose: 50.0 mg/kg/injection, schedule: Q01DX009 (ip), vehicle: distilled water + Tween-80): 126 and 134 % of control | T/C (dose: 100.0 mg/kg/injection, schedule: Q01DX009 (ip), vehicle: distilled water + Tween-80): 144 % of control | T/C (dose: 400.0 mg/kg/injection, schedule: Q01DX009 (ip), vehicle: distilled water + Tween-80): 139 % of control

CCCCCC[N+]1(CC)CCCCC1
survivor count (dose: 50.0 mg/kg/injection, schedule: Q01DX009 (ip), vehicle: saline): 4 of 6 | survivor count (dose: 100.0 mg/kg/injection, schedule: Q01DX009 (ip), vehicle: saline): 0 of 6 | survivor count (dose: 200.0 mg/kg/injection, schedule: Q01DX009 (ip), vehicle: saline): 0 of 6

N/C(=N/O)NO
T/C [2]: 125 % of control | T/C [3]: 127 [5 of 6 alive] and 145 % of control

CC1=NN(C(=O)c2ccccc2)C(=O)C1N=Nc1ccc([N+](=O)[O-])cc1 (stereo unspecified)
survivor count (dose: 200.0 mg/kg/injection, schedule: Q04DX002 (ip), vehicle: saline with Tween-80): 6 of 6 | survivor count [1]: 6 of 6

CNc1nc(-c2ccccc2)c(-c2ccccc2)[nH]1
survivor count (dose: 100.0 mg/kg/injection, schedule: Q04DX002 (ip), vehicle: saline): 0 of 6 | survivor count (dose: 200.0 mg/kg/injection, schedule: Q04DX002 (ip), vehicle: saline): 0 of 6 | survivor count (dose: 400.0 mg/kg/injection, schedule: Q04DX002 (ip), vehicle: saline): 0 of 6

Nc1ncc[n+]2c(COCCCl)[nH]nc12
survivor count (dose: 400.0 mg/kg/injection, schedule: Q01DX001 (ip), vehicle: Klucel (hydroxypropylcellulose) (HPC)): 5 of 6

Nc1cnc2ccccn12
survivor count (dose: 200.0 mg/kg/injection, schedule: Q01DX009 (ip), vehicle: saline with Tween-80): 3 of 6

CC(C)CCCCCCCCCCCCC(=O)NCC(=O)NC1C(O)C(O)C(Nc2ncnc3nc[nH]c23)OC1C(O)CO (stereo unspecified)
T/C (dose: 0.12 mg/kg/injection, schedule: Q01DX009 (ip), vehicle: other): 144 % of control | T/C (dose: 0.12 mg/kg/injection, schedule: Q01DX009 (ip), vehicle: water): 128 % of control | T/C (dose: 0.13 mg/kg/injection, schedule: Q01DX009 (ip), vehicle: distilled water + Tween-80): 141 % of control | T/C (dose: 0.13 mg/kg/injection, schedule: Q01DX009 (ip), vehicle: distilled water + alcohol): 135 % of control | T/C (dose: 0.13 mg/kg/injection, schedule: Q01DX009 (ip), vehicle: other): 120, 122, 133, 137, 141 % of control | T/C (dose: 0.13 mg/kg/injection, schedule: Q01DX009 (ip), vehicle: saline with Tween-80): 133 and 142 % of control | T/C (dose: 0.13 mg/kg/injection, schedule: Q01DX009 (ip), vehicle: water): 129, 130, 131, 132 (2×), 133, 134, 135, 136 (2×), 137, 138 % of control | T/C (dose: 0.25 mg/kg/injection, schedule: Q01DX009 (ip), vehicle: Klucel (hydroxypropylcellulose) (HPC)): 130 % of control | T/C (dose: 0.25 mg/kg/injection, schedule: Q01DX009 (ip), vehicle: distilled water + Tween-80): 142 % of control | T/C (dose: 0.25 mg/kg/injection, schedule: Q01DX009 (ip), vehicle: other): 128, 142, 144, 146, 151, 169 % of control | T/C (dose: 0.25 mg/kg/injection, schedule: Q01DX009 (ip), vehicle: saline with Tween-80): 141 % of control | T/C (dose: 0.25 mg/kg/injection, schedule: Q01DX009 (ip), vehicle: water): 133 (2×), 136, 137, 138, 140, 141 (2×), 142 (2×), 148, 154, 156 % of control | T/C (dose: 0.5 mg/kg/injection, schedule: Q01DX009 (ip), vehicle: Klucel (hydroxypropylcellulose) (HPC)): 138 % of control | T/C (dose: 0.5 mg/kg/injection, schedule: Q01DX009 (ip), vehicle: distilled water + alcohol): 147 % of control | T/C (dose: 0.5 mg/kg/injection, schedule: Q01DX009 (ip), vehicle: other): 139, 143, 154, 159 (2×), 179 % of control | T/C (dose: 0.5 mg/kg/injection, schedule: Q01DX009 (ip), vehicle: saline with Tween-80): 149 % of control | T/C (dose: 0.5 mg/kg/injection, schedule: Q01DX009 (ip), vehicle: water): 141, 143, 144, 148, 151, 153, 154, 157, 158, 159, 166, 168, 172 % of control | T/C (dose: 1.0 mg/kg/injection, schedule: Q01DX009 (ip), vehicle: Klucel (hydroxypropylcellulose) (HPC)): 141 % of control | survivor count (dose: 1.0 mg/kg/injection, schedule: Q01DX009 (ip), vehicle: distilled water + Tween-80): 6 of 6 | T/C [4]: 86, 90, 113, 116 % of control | survivor count [4]: 6 of 6 | T/C (dose: 1.0 mg/kg/injection, schedule: Q01DX009 (ip), vehicle: water): 93, 100, 101, 109, 113, 140, 145, 153, 157, 160, 161, 166, 176 % of control | survivor count (dose: 2.0 mg/kg/injection, schedule: Q01DX009 (ip), vehicle: distilled water + Tween-80): 6 of 6 | T/C (dose: 2.0 mg/kg/injection, schedule: Q01DX009 (ip), vehicle: distilled water + alcohol): 125 % of control | T/C [5]: 88 % of control | survivor count [5]: 5 of 6 and 6 of 6 | survivor count (dose: 2.0 mg/kg/injection, schedule: Q01DX009 (ip), vehicle: saline with Tween-80): 6 of 6 | T/C [6]: 89, 90, 96, 99, 107, 175 % of control | survivor count [6]: 6 of 6 | survivor count (dose: 4.0 mg/kg/injection, schedule: Q01DX009 (ip), vehicle: saline with Tween-80): 6 of 6 | survivor count (dose: 4.0 mg/kg/injection, schedule: Q01DX009 (ip), vehicle: water): 6 of 6

CN1C2C=C(c3ccc(Cl)cc3)CC1CC2 (stereo unspecified)
survivor count (dose: 50.0 mg/kg/injection, schedule: Q01DX005 (ip), vehicle: Klucel (hydroxypropylcellulose) (HPC)): 1 of 6 | survivor count (dose: 50.0 mg/kg/injection, schedule: Q01DX005 (ip), vehicle: saline): 1 of 6 | survivor count (dose: 100.0 mg/kg/injection, schedule: Q01DX005 (ip), vehicle: Klucel (hydroxypropylcellulose) (HPC)): 0 of 6 | survivor count [2]: 0 of 6 | survivor count (dose: 200.0 mg/kg/injection, schedule: Q01DX005 (ip), vehicle: Klucel (hydroxypropylcellulose) (HPC)): 0 of 6 | survivor count [3]: 0 of 6
